# PubChem BioAssay AID1671190 (National Center for Advancing Translational Sciences (NCATS), 2021)
# Protein sequences, listed by entry. Tags and fused reporters are not part of them.
# UniProt P18054, whole entry, looked up: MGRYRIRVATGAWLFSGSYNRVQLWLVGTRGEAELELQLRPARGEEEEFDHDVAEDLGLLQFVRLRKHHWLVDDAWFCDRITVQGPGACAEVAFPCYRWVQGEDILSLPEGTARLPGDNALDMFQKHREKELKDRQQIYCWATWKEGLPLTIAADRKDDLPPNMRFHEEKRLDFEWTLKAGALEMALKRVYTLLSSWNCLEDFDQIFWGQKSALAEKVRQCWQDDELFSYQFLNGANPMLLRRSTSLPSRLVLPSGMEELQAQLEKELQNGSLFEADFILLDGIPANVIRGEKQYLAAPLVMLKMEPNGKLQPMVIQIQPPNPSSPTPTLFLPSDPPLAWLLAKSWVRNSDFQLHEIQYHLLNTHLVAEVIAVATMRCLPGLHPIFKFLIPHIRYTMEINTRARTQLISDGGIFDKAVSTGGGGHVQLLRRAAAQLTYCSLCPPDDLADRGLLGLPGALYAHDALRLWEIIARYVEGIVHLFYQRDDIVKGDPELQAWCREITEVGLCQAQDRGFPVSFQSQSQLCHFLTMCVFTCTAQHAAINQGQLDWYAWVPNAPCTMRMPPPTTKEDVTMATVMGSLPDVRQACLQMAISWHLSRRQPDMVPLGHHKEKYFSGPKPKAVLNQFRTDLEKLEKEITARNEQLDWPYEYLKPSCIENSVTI
# Several values for one entry are separate records, joined by “and”; a condition that tells them apart may be missing. Identical values can stand only once. Screen size: about 580,000 compounds; about 6,100 (1.1%) were called active. Inconclusive results, whose numbers are uncertain, are shown with a selection of clear calls. Calls follow the shape of the dose curve; as a rule, active = well fitted inhibition curve with a large enough effect; inconclusive = small, poorly fitted or top-dose-only effect, or another doubt; inactive = no such curve, though single readings can be large or run the other way. Potencies of inconclusive entries are doubtful fits and often do not repeat.
# Target: Polyunsaturated fatty acid lipoxygenase ALOX12 (Homo sapiens) (UniProt P18054)
# Test: Primary qHTS assay for inhibitors of human arachidonate 12S-lipoxygenase (ALOX12): Round 2
# Conditions: purified 12hLO, xylenol orange hydroperoxide absorbance; series mostly up to 108 µM
# Outline: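 Purified human 12hLO at 150 nM in 25 mM Hepes, 0.01% Triton X-100, pH 7.0, preincubated 15 min at room temperature with compound. Reaction started with 40 uM arachidonic acid, 30 min at room temperature. Hydroperoxide measured by Fe-xylenol orange, 573/405 nm absorbance ratio.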
# Potency is read from the fitted curve at half-maximal effect.
row,SMILES,Potency
1,C=CCN1C(=O)C(CC(=O)NCC)SC1=Nc1cc(Cl)ccc1Cl (stereo not drawn),"inconclusive: 63.1 µM [inhibitor, partial curve, poor fit]"
2,COCC(=O)O[C@]1(CCN(C)CCCc2nc3ccccc3[nH]2)CCc2cc(F)ccc2[C@@H]1C(C)C,"active: 11.2 µM and inconclusive: 7.94 µM [inhibitor, full curve, poor fit]"
3,Nc1c(C(=O)N/N=C/c2ccc(Cl)cc2)cnn1-c1ccccc1,inactive
4,Cc1nn(C)cc1CN(C)C(=O)c1nn2c(c1Br)NC(c1cccs1)CC2C(F)(F)F (stereo not drawn),inactive
5,CCc1ccc(CNC(=O)C2CCN(C(=O)c3ccc(-n4ccc5ccccc54)s3)CC2)cc1,"inconclusive: 112 µM [inhibitor, partial curve, poor fit]"
6,CN(C)c1ccc(C(=O)Nc2cnc3ccccc3c2)cc1,active: 39.8 µM
7,CCc1ccccc1NC(=O)C(=O)NCCc1csc(-c2ccc(C(F)(F)F)cc2)n1,inactive
8,Cc1ccccc1CS(=O)(=O)c1ncc(Cl)c(C(=O)Nc2nnc(C(C)C)s2)n1,"inconclusive: 1.12 µM [inhibitor, full curve, poor fit]"
9,Fc1cccc(Cc2c(-c3ccco3)nc3ccc(Br)cn23)c1,inactive
10,O=C(CCCN1C(=O)NC2(CCCC2)C1=O)Nc1cccc(S(=O)(=O)N2CCOCC2)c1,"inconclusive: 44.7 µM [inhibitor, partial curve, poor fit]"
11,CCc1ccc(N2C(=O)CC(Cn3nc(C)cc3C)C2=O)cc1 (stereo not drawn),"inconclusive: 141 µM [inhibitor, partial curve, poor fit]"
12,Cc1cc(C)cc(NC(=O)CCc2ncc(-c3ccc(F)cc3F)o2)c1,"inconclusive: 22.4 µM [inhibitor, partial curve, poor fit]"
13,Cc1c(C(=O)N(C)C2CCOC2)sc2ncnc(NCC3(c4ccccc4)CCOCC3)c12 (stereo not drawn),inactive
14,O=C(Cc1ccc(Cl)cc1)NCC(=O)N1CCN(c2ccccc2)CC1,inactive
15,Cc1nc(NC2CC2)sc1C(=O)NCCc1ccccc1,inactive
16,Cn1c(=O)c2c(ncn2CCC(=O)Nc2ccc(F)c(F)c2)n(C)c1=O,inactive
17,COc1cccc(/C=C2/C(=O)c3ccccc3OC2c2ccccc2)c1 (stereo not drawn),inactive
18,Cc1ccc([C@H]2N[C@]3(CCCN(CC4CCCCC4)C3=O)[C@H]3C(=O)N(C)C(=O)[C@@H]23)cc1,"inconclusive: 12.6 µM [inhibitor, full curve]"
19,CC(C)c1ccc(-c2noc(SCC(=O)N(C)c3ccc(F)cc3)n2)cc1,"inconclusive: 112 µM [inhibitor, partial curve, poor fit]"
20,Cc1ccc(Cn2c(C3CCN(C(=O)c4sccc4C)CC3)n[nH]c2=O)cc1,"inconclusive: 35.5 µM [inhibitor, partial curve]"
21,O=c1c2c(n(Cc3cccnc3)n1-c1ccccc1)CN(CC1CCOC1)CC2 (stereo not drawn),"inconclusive: 22.4 µM [inhibitor, full curve]"
22,COc1cccc(CC2(CO)CCCN(Cc3ccc(OC(F)F)cc3)C2)c1 (stereo not drawn),"inconclusive: 79.4 µM [inhibitor, partial curve, poor fit]"
23,COc1cccc(/C=C(\C#N)c2nc3ccccc3[nH]2)c1O,"inconclusive: 8.91 µM [inhibitor, full curve]"

row,SMILES,Potency
1,O=C(COc1ccccc1)N1CCN(S(=O)(=O)Cc2ccccc2)CC1,inactive
2,CCOC(=O)C(C)Oc1cccc2c(=O)n(CC(=O)Nc3ccc(OC)cc3)ccc12 (stereo not drawn),"inconclusive: 35.5 µM [inhibitor, single point]"
3,CC(=O)N(c1ccc2oc(=O)sc2c1)S(=O)(=O)c1ccc(C)cc1,active: 8.91 µM
4,CCN(CC)Cc1cc(Nc2ccnc3cc(Cl)ccc23)ccc1O,inactive
5,S=C(NCc1ccccc1)N1CCN(c2ccccc2)CC1,inactive
6,O=C(COC(=O)c1ccco1)Nc1ccc2c(c1)OCO2,inactive
7,COc1cccc2cc(/C(C)=N/Nc3nc(-c4cc(C)ccc4C)cs3)c(=O)oc12,"inconclusive: 35.5 µM [inhibitor, partial curve, poor fit]"
8,NC(=O)c1nn(CC(=O)Nc2ccccc2OC(F)(F)F)c(=O)c2ccccc12,"inconclusive: 100 µM [inhibitor, single point]"
9,O=C(NS(=O)(=O)Nc1ccccc1)C1=C(N2CCCC2)COC1=O,active: 15.8 µM
10,O=C(O)c1ccc(N=NN2CCOCC2)cc1,"inconclusive: 28.2 µM [inhibitor, single point]"
11,Cc1cc(NC(=O)c2cc(-c3ccccn3)nc3c(Cl)cccc23)no1,inactive
12,CCc1ccc(NS(=O)(=O)c2ccc(NC(C)=O)c(OC)c2)cc1,"inconclusive: 44.7 µM [inhibitor, partial curve, poor fit]"
13,O=C(Cc1ccsc1)N1CCc2n[nH]c(=O)n2CC1,inactive
14,CC(=O)c1ccc(NC(=O)N[C@H]2CCN3C(=O)[C@@H](Cc4ccccc4)NC(=O)[C@H]23)cc1,inactive
15,Cc1onc(-c2ccccc2)c1C(=O)Nc1ccc(Cl)c(S(=O)(=O)N2CCOCC2)c1,"inconclusive: 126 µM [inhibitor, single point]"
16,O=C(CN1CCCSc2ccccc21)N1CCN(S(=O)(=O)c2cccc(F)c2)CC1,"inconclusive: 126 µM [inhibitor, single point]"
17,S=c1[nH]nc(C(c2ccccc2)C2CCCCC2)o1 (stereo not drawn),"inconclusive: 89.1 µM [inhibitor, partial curve, poor fit]"
18,Cn1c(-c2ccc3nc(N)sc3c2)nc2cc(N)ccc21,inactive
19,CN(C)c1ccc2cc(C(=O)N[C@@H](CCCN=C(N)CCl)C(=O)NCc3ccccc3)ccc2c1,"inconclusive: 5.44 µM [inhibitor, partial curve, poor fit]"
20,COc1ccc(C(Nc2ccccn2)c2c(NC(=O)c3ccco3)sc(C)c2C)cc1 (stereo not drawn),"inconclusive: 7.08 µM [inhibitor, full curve, poor fit]"
21,CSc1ccc(-c2ccc3c(c2)C(=O)N2CC[C@H](NC(=O)c4cccs4)C[C@H]2C(=O)N3)cc1,"inconclusive: 31.6 µM [inhibitor, full curve]"
22,CN(C(=O)CN1CCN(c2cc(-c3ccc(OCc4ccccc4)cc3)ncn2)CC1)c1ccccc1,active: 10 µM
23,COC(=O)c1cc2oc(C)cc2n1Cc1ccc(C)cc1,"inconclusive: 79.4 µM [inhibitor, partial curve, poor fit]"

row,SMILES,Potency
1,O=C(NC1CCCc2ccccc21)c1ccccc1Br (stereo not drawn),inactive
2,O=C(O)c1c2c(nc3ccc(S(=O)(=O)N4CCC(C(=O)NCc5ccc(Cl)cc5)CC4)cc13)CCCC2,active: 20 µM and active: 25.1 µM
3,COc1ccc(-c2cc(C(=O)O)c3ccccc3n2)c(OC)c1,"inconclusive: 35.5 µM [inhibitor, partial curve, poor fit]"
4,Cc1ccc(NC(=O)C2CC3CCC2C3)c(C)c1 (stereo not drawn),"inconclusive: 17.8 µM [inhibitor, full curve, poor fit]"
5,OC(c1ccc2c(c1)CN(Cc1ccc3nsnc3c1)CCO2)C1CCCCC1 (stereo not drawn),"inconclusive: 112 µM [inhibitor, single point]"
6,CC(Oc1ccccc1)C(=O)N1CCC2(CC1)Oc1ccc(F)cc1C(=O)C21CC(c2ccccc2)=NO1 (stereo not drawn),inactive
7,O=S1(=O)c2ccc(Br)cc2OC(COCc2ccccc2)CN1Cc1ccccc1 (stereo not drawn),inactive
8,NC(=O)c1cc(S(=O)(=O)NCC2CCN(Cc3ccc(Cl)cc3)CC2)cs1,"inconclusive: 112 µM [inhibitor, single point]"
9,COc1ccc(C(=O)/C=C/c2ccc(F)c(F)c2)cc1CSCC(=O)O,"inconclusive: 11.2 µM [inhibitor, full curve, poor fit]"
10,O=C(COc1cccc(NC(=O)c2cccc([N+](=O)[O-])c2)c1)c1ccc(Br)cc1,inactive
11,O=C(CN1C(=O)NC2(CCS(=O)(=O)CC2)C1=O)Nc1ccc(Br)cc1,"inconclusive: 25.1 µM [inhibitor, full curve]"
12,O=C(NC1CCN(S(=O)(=O)c2ccccc2Cl)CC1)C1CCCCC1,"inconclusive: 12.6 µM [inhibitor, full curve]"
13,CC(C)(/C=N/O)/[N+]([O-])=C/C=[N+](\[O-])C(C)(C)/C=N/O,"inconclusive: 28.2 µM [inhibitor, partial curve, poor fit]"
14,CC(C)(C)c1ccc(-c2nnc(SCC(=O)NC(=O)NC3CCCC3)n2Cc2ccco2)cc1,"inconclusive: 44.7 µM [inhibitor, partial curve, poor fit]"
15,CC(=O)NC(c1ccccc1)c1nc(-c2cccnc2)cs1 (stereo not drawn),"inconclusive: 112 µM [inhibitor, single point]"
16,N#Cc1ccccc1OC(=O)/C=C/c1ccco1,"inconclusive: 39.8 µM [inhibitor, partial curve, poor fit]"
17,Cc1cc(Br)ccc1OCCCCN1CCCCC1,"inconclusive: 1.58 µM [inhibitor, full curve, poor fit]"
18,Cc1ccc2nc(C)cc(C(=O)N3CCC(c4cc(CC(=O)O)[nH]n4)CC3)c2c1,"inconclusive: 7.94 µM [inhibitor, full curve]"
19,Cc1onc(-c2ccccc2)c1C(N)=O,inactive
20,CC(C)c1ccc(NS(=O)(=O)c2ccc3c(c2)-c2oncc2CO3)cc1,"inconclusive: 44.7 µM [inhibitor, partial curve, poor fit]"
21,CC(C)(C)c1cc(/C=N/NC(=O)C[n+]2ccccc2)cc(C(C)(C)C)c1O,inactive
22,O=C(CCCOc1ccc(Cl)cc1Cl)N/N=C/c1cccc([N+](=O)[O-])c1,inactive
